For seven molecules, binding results are on record in paper PMC12037078.

Chains of the proteins cited; added tags and fusions are not shown.
UniProt P54105: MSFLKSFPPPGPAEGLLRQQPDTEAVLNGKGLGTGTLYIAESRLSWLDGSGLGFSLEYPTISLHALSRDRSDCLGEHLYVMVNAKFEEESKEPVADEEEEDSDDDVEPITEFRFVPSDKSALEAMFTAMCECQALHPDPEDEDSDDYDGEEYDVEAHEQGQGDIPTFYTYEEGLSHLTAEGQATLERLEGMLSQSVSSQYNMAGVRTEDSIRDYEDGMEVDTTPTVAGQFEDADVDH
UniProt P98175: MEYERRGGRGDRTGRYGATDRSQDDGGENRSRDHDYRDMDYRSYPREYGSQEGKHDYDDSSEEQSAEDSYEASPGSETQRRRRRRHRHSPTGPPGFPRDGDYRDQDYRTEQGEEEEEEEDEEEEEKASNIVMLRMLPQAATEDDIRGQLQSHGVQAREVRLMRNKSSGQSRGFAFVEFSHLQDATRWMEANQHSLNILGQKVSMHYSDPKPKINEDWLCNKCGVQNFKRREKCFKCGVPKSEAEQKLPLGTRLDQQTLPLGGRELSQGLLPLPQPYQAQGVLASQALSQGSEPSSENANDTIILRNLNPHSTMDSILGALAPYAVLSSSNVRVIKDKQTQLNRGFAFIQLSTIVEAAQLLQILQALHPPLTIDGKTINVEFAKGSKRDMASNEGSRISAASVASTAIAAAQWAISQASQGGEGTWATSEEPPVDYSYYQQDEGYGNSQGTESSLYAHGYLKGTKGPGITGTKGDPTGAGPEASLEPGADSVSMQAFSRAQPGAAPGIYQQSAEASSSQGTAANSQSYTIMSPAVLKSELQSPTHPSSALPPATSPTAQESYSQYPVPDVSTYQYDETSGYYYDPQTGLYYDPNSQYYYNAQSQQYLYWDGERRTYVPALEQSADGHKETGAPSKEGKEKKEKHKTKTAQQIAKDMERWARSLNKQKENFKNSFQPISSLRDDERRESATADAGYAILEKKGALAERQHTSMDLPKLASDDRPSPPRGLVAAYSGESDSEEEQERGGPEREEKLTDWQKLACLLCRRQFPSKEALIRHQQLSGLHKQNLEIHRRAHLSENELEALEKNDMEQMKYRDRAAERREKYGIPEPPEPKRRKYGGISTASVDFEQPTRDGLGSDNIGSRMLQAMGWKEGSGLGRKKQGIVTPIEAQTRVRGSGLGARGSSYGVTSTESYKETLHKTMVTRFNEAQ
UniProt Q96CX2: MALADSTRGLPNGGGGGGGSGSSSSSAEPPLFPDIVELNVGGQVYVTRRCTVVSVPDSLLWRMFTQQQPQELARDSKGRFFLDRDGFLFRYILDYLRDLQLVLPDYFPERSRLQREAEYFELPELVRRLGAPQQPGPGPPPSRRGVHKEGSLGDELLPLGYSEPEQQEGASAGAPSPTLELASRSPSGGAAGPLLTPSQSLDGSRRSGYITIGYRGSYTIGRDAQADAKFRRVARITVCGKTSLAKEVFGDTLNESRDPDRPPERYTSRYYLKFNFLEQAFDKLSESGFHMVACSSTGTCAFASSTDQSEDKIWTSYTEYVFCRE

No constants are given. Whether binding was seen depends on the method and setting. Binding seen in cells or lysates may run through a third protein. A yes stands for co-enrichment or nearness to the bait. Other partners may have been found. Tags and fused reporters may be left off the sequences shown.

The target of the experiment is T1, N-terminally Strep/FLAG-tagged PPDPF (pancreatic progenitor differentiation and proliferation factor) (human) (UniProt Q9H3Y8).
T1 sequence: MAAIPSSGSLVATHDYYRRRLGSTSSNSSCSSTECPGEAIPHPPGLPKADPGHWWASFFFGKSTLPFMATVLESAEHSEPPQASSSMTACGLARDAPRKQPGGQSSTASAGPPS
As to the kind of experiment: affinity purification with mass spectrometry; SILAC (K0/R0 against K8/R10, labels also switched) in HEK293T cells transfected with Strep/FLAG-PPDPF or a vector control; bait and associated proteins purified on StrepTactin resin, eluted with desthiobiotin; eluates mixed 1:1; Q-Exactive; n = 4.

Regarding CLNS1A (from UniProt P54105 1-237), the binding entry is reported as “binds”.
With RBM10 (from UniProt P98175 1-930), the binding entry is “binds”.
With “KCTD12 (endogenous, HEK293T) (from UniProt Q96CX2 1-325)” the entry was “binds”.

B1: RIOK1 (protein, UniProt Q9BRS2 1-568)
chain: MDYRRLLMSRVVPGQFDDADSSDSENRDLKTVKEKDDILFEDLQDNVNENGEGEIEDEEEEGYDDDDDDWDWDEGVGKLAKGYVWNGGSNPQANRQTSDSSSAKMSTPADKVLRKFENKINLDKLNVTDSVINKVTEKSRQKEADMYRIKDKADRATVEQVLDPRTRMILFKMLTRGIITEINGCISTGKEANVYHASTANGESRAIKIYKTSILVFKDRDKYVSGEFRFRHGYCKGNPRKMVKTWAEKEMRNLIRLNTAEIPCPEPIMLRSHVLVMSFIGKDDMPAPLLKNVQLSESKARELYLQVIQYMRRMYQDARLVHADLSEFNMLYHGGGVYIIDVSQSVEHDHPHALEFLRKDCANVNDFFMRHSVAVMTVRELFEFVTDPSITHENMDAYLSKAMEIASQRTKEERSSQDHVDEEVFKRAYIPRTLNEVKNYERDMDIIMKLKEEDMAMNAQQDNILYQTVTGLKKDLSGVQKVPALLENQVEERTCSDSEDIGSSECSDTDSEEQGDHARPKKHTTDPDIDKKERKKMVKEAQREKRKNKIPKHVKKRKEKTAKTKKGK
B1: the binding entry is given as “binds”.

B2: MAGED1 (endogenous, HEK293T) (protein, UniProt Q9Y5V3 1-778)
chain: MAQKMDCGAGLLGFQAEASVEDSALLMQTLMEAIQISEAPPTNQATAAASPQSSQPPTANEMADIQVSAAAARPKSAFKVQNATTKGPNGVYDFSQAHNAKDVPNTQPKAAFKSQNATPKGPNAAYDFSQAATTGELAANKSEMAFKAQNATTKVGPNATYNFSQSLNANDLANSRPKTPFKAWNDTTKAPTADTQTQNVNQAKMATSQADIETDPGISEPDGATAQTSADGSQAQNLESRTIIRGKRTRKINNLNVEENSSGDQRRAPLAAGTWRSAPVPVTTQNPPGAPPNVLWQTPLAWQNPSGWQNQTARQTPPARQSPPARQTPPAWQNPVAWQNPVIWPNPVIWQNPVIWPNPIVWPGPVVWPNPLAWQNPPGWQTPPGWQTPPGWQGPPDWQGPPDWPLPPDWPLPPDWPLPTDWPLPPDWIPADWPIPPDWQNLRPSPNLRPSPNSRASQNPGAAQPRDVALLQERANKLVKYLMLKDYTKVPIKRSEMLRDIIREYTDVYPEIIERACFVLEKKFGIQLKEIDKEEHLYILISTPESLAGILGTTKDTPKLGLLLVILGVIFMNGNRASEAVLWEALRKMGLRPGVRHPLLGDLRKLLTYEFVKQKYLDYRRVPNSNPPEYEFLWGLRSYHETSKMKVLRFIAEVQKRDPRDWTAQFMEAADEALDALDAAAAEAEARAEARTRMGIGDEAVSGPWSWDDIEFELLTWDEEGDFGDPWSRIPFTFWARYHQNARSRFPQTFAGPIIGPGGTASANFAANFGAIGFFWVE
On to B2, for which the binding result is given as “binds”.

B3: COPRS (protein, UniProt Q9NQ92 1-184)
chain: MDLQAAGAQAQGAAEPSRGPPLPSARGAPPSPEAGFATADHSSQERETEKAMDRLARGTQSIPNDSPARGEGTHSEEEGFAMDEEDSDGELNTWELSEGTNCPPKEQPGDLFNEDWDSELKADQGNPYDADDIQESISQELKPWVCCAPQGDMIYDPSWHHPPPLIPYYSKMVFETGQFDDAED
As to B3, the binding entry is recorded as “binds”.

B4: USP15 (enzyme, UniProt Q9Y4E8 1-981)
chain: MAEGGAADLDTQRSDIATLLKTSLRKGDTWYLVDSRWFKQWKKYVGFDSWDKYQMGDQNVYPGPIDNSGLLKDGDAQSLKEHLIDELDYILLPTEGWNKLVSWYTLMEGQEPIARKVVEQGMFVKHCKVEVYLTELKLCENGNMNNVVTRRFSKADTIDTIEKEIRKIFSIPDEKETRLWNKYMSNTFEPLNKPDSTIQDAGLYQGQVLVIEQKNEDGTWPRGPSTPKSPGASNFSTLPKISPSSLSNNYNNMNNRNVKNSNYCLPSYTAYKNYDYSEPGRNNEQPGLCGLSNLGNTCFMNSAIQCLSNTPPLTEYFLNDKYQEELNFDNPLGMRGEIAKSYAELIKQMWSGKFSYVTPRAFKTQVGRFAPQFSGYQQQDCQELLAFLLDGLHEDLNRIRKKPYIQLKDADGRPDKVVAEEAWENHLKRNDSIIVDIFHGLFKSTLVCPECAKISVTFDPFCYLTLPLPMKKERTLEVYLVRMDPLTKPMQYKVVVPKIGNILDLCTALSALSGIPADKMIVTDIYNHRFHRIFAMDENLSSIMERDDIYVFEININRTEDTEHVIIPVCLREKFRHSSYTHHTGSSLFGQPFLMAVPRNNTEDKLYNLLLLRMCRYVKISTETEETEGSLHCCKDQNINGNGPNGIHEEGSPSEMETDEPDDESSQDQELPSENENSQSEDSVGGDNDSENGLCTEDTCKGQLTGHKKRLFTFQFNNLGNTDINYIKDDTRHIRFDDRQLRLDERSFLALDWDPDLKKRYFDENAAEDFEKHESVEYKPPKKPFVKLKDCIELFTTKEKLGAEDPWYCPNCKEHQQATKKLDLWSLPPVLVVHLKRFSYSRYMRDKLDTLVDFPINDLDMSEFLINPNAGPCRYNLIAVSNHYGGMGGGHYTAFAKNKDDGKWYYFDDSSVSTASEDQIVSKAAYVLFYQRQDTFSGTGFFPLDRETKGASAATGIPLESDEDSNDNDNDIENENCMHTN
For the molecule B4, the binding result was “binds”.
